Experimental data: paper doi:10.1101/2023.01.18.523235
No constants are given. Whether binding was seen depends on the method and setting. Binding seen in cells or lysates may run through a third protein. Some results given as binding are weak or reduced against the parent protein; the word gives no strength. Where a sequence is shown, tags or fusion partners need not be part of it.

Protein sequences, listed by entry. Tags and fused reporters are not part of them. Lines headed by an entry give the natural chain unless they say otherwise; changes in a name come on top.
UniProt Q96RY7, whole entry: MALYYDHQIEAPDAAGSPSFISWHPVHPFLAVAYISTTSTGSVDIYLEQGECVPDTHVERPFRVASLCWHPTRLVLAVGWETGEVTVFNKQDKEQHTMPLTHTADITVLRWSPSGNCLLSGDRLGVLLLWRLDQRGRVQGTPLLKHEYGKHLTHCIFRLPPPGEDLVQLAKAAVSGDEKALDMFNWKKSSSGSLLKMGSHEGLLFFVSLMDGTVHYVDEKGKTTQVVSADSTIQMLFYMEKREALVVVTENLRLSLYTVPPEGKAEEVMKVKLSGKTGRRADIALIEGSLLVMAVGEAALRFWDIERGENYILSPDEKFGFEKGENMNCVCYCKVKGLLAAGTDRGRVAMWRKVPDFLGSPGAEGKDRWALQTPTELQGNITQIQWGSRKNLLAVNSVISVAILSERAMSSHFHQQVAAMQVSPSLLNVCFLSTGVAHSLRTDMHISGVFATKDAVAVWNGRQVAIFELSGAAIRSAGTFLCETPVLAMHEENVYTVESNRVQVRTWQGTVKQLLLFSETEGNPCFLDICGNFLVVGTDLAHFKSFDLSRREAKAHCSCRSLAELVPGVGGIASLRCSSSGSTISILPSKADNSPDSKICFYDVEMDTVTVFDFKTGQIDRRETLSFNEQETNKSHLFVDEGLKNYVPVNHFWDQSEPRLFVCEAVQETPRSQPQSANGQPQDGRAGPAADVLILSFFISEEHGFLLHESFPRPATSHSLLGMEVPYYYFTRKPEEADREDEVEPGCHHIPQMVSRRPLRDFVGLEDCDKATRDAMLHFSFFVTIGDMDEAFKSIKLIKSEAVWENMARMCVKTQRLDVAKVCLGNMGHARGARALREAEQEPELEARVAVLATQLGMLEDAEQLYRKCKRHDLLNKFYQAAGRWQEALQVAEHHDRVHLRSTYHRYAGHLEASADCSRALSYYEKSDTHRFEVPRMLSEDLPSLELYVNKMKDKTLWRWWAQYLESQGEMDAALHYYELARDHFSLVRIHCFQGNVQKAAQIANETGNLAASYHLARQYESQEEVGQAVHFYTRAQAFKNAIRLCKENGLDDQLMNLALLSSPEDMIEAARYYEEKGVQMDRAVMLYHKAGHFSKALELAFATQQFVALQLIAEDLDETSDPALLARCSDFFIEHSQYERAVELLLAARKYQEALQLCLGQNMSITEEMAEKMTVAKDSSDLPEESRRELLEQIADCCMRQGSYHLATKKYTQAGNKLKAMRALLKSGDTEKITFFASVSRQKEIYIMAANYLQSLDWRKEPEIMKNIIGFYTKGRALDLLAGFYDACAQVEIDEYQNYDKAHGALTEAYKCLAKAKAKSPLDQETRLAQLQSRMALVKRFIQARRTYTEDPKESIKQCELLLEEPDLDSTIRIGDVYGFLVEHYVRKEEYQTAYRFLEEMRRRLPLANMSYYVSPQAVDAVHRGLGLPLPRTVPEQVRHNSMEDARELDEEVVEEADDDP

Legend:
Experiment in all cases: co-IP
[1] = target: IFT140 G140R (human) (UniProt Q96RY7)
[2] = target: IFT140 V108M (human) (UniProt Q96RY7)
[3] = target: IFT140 E267G (human) (UniProt Q96RY7)
[4] = target: IFT140 S939P (human) (UniProt Q96RY7)
[5] = target: IFT140 A341T (human) (UniProt Q96RY7)
[6] = target: IFT140 V292M (human) (UniProt Q96RY7)
[7] = target: IFT140 C663W (human) (UniProt Q96RY7)
[8] = target: IFT140 E664K (human) (UniProt Q96RY7)
[9] = target: IFT140 I233M (human) (UniProt Q96RY7)
[10] = target: IFT140 C333Y (human) (UniProt Q96RY7)
[11] = target: IFT140 T484M (human) (UniProt Q96RY7)
[12] = target: IFT140 wildtype (human) (UniProt Q96RY7)

Measured: binding

B1: (N)HA-TULP3 (protein, UniProt O75386 1-442)
chain: MEASRCRLSPSGDSVFHEEMMKMRQAKLDYQRLLLEKRQRKKRLEPFMVQPNPEARLRRAKPRASDEQTPLVNCHTPHSNVILHGIDGPAAVLKPDEVHAPSVSSSVVEEDAENTVDTASKPGLQERLQKHDISESVNFDEETDGISQSACLERPNSASSQNSTDTGTSGSATAAQPADNLLGDIDDLEDFVYSPAPQGVTVRCRIIRDKRGMDRGLFPTYYMYLEKEENQKIFLLAARKRKKSKTANYLISIDPVDLSREGESYVGKLRSNLMGTKFTVYDRGICPMKGRGLVGAAHTRQELAAISYETNVLGFKGPRKMSVIIPGMTLNHKQIPYQPQNNHDSLLSRWQNRTMENLVELHNKAPVWNSDTQSYVLNFRGRVTQASVKNFQIVHKNDPDYIVMQFGRVADDVFTLDYNYPLCAVQAFGIGLSSFDSKLACE
binds weakly: [8] | [11]
binds: all other assays above
